Here are results for one molecule from article PMC3542282, “P. falciparum cpn20 Is a Bona Fide Co-Chaperonin That Can Replace GroES in E. coli” (PLoS ONE, 2013).

This assay concerns the target T1, A. thaliana cpn20 (A. thaliana) (UniProt O65282).
T1 sequence: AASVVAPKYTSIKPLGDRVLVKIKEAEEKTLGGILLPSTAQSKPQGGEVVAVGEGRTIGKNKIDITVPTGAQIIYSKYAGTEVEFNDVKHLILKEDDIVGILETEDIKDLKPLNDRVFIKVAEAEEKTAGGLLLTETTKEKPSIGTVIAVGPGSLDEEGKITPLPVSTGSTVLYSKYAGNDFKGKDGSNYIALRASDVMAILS
The assay can be described thus: pull-down; 30 µM his-tagged Cpn20 with 20 µM At-Cpn10, 1 hour, 50 mM Na-HEPES pH 7.7, 150 mM NaCl, 10 mM MgCl2, 100 mM KCl, 25 mM imidazole; Ni-NTA beads, room temperature, 5 washes; SDS-PAGE, Coomassie; both purified.

No constants are given. Whether binding was seen depends on the method and setting. Some binding calls cover weakened binding; strength is not graded here.

B1: A. thaliana cpn10 (protein, UniProt O80504 40-139)
chain: IKAISTKWEPTKVVPQADRVLVRLEDLPIKSSGGVLLPKAAVKFERYLTGEIISVGSEVGQQVGPGKRVLFSDVSAYEVDLGTDARHCFCKESDLLALVE
B1: the binding entry was “binds”.
